# In the supplement of paper PMC7024190:
# Some of the results follow. Repeats in this data set agree poorly, so a single value says little.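 Human embryonic kidney cells were transiently transfected with a plasmid bearing a Renilla luciferase gene under the HSV-TK promoter. This first-round screen tests roughly ten thousand compounds for ones that increase reporter output.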
# System: HEK 293FT
# Experiment: log relative Renilla luciferase luminescence (reporter expression vs reference, reference not stated) (log (base not stated)); higher = higher recombinant reporter expression
# Conditions: 10 µM; time after transfection 48 h
# Description: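 HEK 293FT cells transiently transfected with pRL-TK (Renilla luciferase) were treated with compounds at 10 uM and luminescence was read about 42 h later. Values are log relative Renilla luminescence (log base and reference not stated). Single-pass screen; 2080 natural products library.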
row,Structure (SMILES),log
1,C[C@H](CCC=C(CO)CO)[C@H]1CC[C@@]2(C)C3=CC[C@H]4C(C)(C)C(=O)CC[C@]4(C)C3=CC[C@]12C [Ganoderiol F],0.183
2,CC(C)[C@H]1CC[C@@H]2[C@]1(C)CC[C@]1(C)C3=C(CC[C@@]21C)[C@@](C)(CC(=O)O)[C@H](C(C)(C)C=O)CC3 [Alstonic acid A],-0.0445
3,COC(=O)[C@H]1[C@H]2C[C@H]3c4[nH]c5ccccc5c4CCN3C[C@H]2CC[C@@H]1O [alpha-Yohimbine],0.143
4,"CC[C@H](CC[C@@H](C)[C@H]1CC[C@H]2[C@@H]3C[C@@H](O)C4=C[C@@H](O)CC[C@]4(C)[C@H]3CC[C@]12C)C(C)C [Stigmast-4-ene-3,6-diol]",0.185
5,CC1(C)CC[C@]2(C(=O)O)CC[C@]3(C)C(=CC[C@@H]4[C@@]5(C)C[C@@H](O)[C@H](O)C(C)(C)[C@@H]5CC[C@]43C)[C@@H]2C1 [Crategolic acid],0.127
6,"C/C=C1/CN2CCC1C(CO)(C(=O)OC)c1[nH]c3ccccc3c1C2 (stereo not given) [19,20-(E)-Isovallesamine]",-0.344
7,C=C(CO)[C@@H]1CC[C@@]2(C)CCC[C@@](C)(O)[C@@H]2C1 [Ilicol],-0.0825
8,O=c1ccc2ncc(O)c3c4ccccc4n1c23 [1-Hydroxycanthin-6-one],-1.1
9,Oc1ccc([C@H]2Oc3cc(O[C@@H]4OC[C@@H](O)[C@H](O)[C@H]4O)cc(O)c3C[C@@H]2O)cc1O [Catechin 7-xyloside],-0.43
10,"COc1cc2oc(=O)cc(OC)c2c(C)c1OC [4,6,7-Trimethoxy-5-methylcoumarin]",-0.11

# Reformatted tab-delimited: entries from further up.
row	Structure (SMILES)	log
4	CC[C@H](CC[C@@H](C)[C@H]1CC[C@H]2[C@@H]3C[C@@H](O)C4=C[C@@H](O)CC[C@]4(C)[C@H]3CC[C@]12C)C(C)C [Stigmast-4-ene-3,6-diol]	0.185
5	CC1(C)CC[C@]2(C(=O)O)CC[C@]3(C)C(=CC[C@@H]4[C@@]5(C)C[C@@H](O)[C@H](O)C(C)(C)[C@@H]5CC[C@]43C)[C@@H]2C1 [Crategolic acid]	0.127
